Source: publication PMC6522492
No constants are given. Whether binding was seen depends on the method and setting. Binding seen in cells or lysates may run through a third protein. A yes stands for co-enrichment or nearness to the bait. Other partners may have been found.

By UniProt entry, the sequences of proteins in these tests, tags left out.
UniProt Q9U0K8: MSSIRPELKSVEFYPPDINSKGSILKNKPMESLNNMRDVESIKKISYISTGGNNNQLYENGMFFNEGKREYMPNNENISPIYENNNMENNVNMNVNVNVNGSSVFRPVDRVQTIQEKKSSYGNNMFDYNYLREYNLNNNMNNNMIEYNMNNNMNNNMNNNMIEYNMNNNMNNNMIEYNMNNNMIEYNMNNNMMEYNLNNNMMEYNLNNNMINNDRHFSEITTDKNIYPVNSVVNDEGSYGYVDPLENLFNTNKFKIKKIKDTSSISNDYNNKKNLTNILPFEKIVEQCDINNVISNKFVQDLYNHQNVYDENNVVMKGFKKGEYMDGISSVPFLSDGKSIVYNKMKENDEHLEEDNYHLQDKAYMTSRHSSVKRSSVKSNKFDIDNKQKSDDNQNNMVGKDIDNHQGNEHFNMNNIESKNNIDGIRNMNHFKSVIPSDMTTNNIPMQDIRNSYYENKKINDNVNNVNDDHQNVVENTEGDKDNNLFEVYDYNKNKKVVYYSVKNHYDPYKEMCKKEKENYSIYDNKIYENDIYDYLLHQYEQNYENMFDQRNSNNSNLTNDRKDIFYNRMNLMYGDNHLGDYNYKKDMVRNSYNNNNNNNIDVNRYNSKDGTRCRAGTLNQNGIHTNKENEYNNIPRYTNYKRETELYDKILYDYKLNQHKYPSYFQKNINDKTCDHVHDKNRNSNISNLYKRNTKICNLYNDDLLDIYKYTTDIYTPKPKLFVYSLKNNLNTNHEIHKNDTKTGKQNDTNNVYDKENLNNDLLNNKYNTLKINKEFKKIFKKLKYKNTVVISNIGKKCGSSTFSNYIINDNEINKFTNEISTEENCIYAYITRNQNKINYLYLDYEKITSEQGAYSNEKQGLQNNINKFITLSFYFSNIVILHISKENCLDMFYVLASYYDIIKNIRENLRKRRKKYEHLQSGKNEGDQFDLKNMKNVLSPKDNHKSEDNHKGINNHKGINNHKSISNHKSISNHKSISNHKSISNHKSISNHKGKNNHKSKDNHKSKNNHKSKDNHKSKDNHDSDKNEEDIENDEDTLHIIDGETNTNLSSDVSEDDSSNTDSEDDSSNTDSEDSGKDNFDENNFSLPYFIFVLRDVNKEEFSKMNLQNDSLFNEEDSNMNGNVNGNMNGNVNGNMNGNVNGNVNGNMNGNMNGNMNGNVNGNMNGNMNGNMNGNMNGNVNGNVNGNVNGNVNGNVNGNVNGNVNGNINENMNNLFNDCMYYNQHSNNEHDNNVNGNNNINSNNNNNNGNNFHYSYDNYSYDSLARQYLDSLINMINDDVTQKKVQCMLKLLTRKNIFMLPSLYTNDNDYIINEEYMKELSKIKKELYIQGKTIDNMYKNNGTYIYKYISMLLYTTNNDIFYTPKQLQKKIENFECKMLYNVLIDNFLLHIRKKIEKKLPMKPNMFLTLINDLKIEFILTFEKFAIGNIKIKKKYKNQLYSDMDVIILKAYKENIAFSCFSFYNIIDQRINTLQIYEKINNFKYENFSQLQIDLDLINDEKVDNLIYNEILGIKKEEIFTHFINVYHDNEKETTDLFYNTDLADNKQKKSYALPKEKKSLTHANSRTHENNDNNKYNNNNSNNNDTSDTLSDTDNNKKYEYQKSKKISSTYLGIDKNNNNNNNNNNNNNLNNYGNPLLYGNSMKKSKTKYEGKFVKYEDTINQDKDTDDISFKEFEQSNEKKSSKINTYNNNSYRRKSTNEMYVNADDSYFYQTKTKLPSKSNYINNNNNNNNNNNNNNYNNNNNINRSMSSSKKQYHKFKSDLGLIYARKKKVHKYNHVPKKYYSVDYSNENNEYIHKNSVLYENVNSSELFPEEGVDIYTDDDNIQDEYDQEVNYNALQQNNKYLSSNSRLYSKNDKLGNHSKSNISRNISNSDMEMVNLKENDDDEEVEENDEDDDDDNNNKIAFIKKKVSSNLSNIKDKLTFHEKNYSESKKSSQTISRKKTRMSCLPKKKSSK
UniProt C6S3C9: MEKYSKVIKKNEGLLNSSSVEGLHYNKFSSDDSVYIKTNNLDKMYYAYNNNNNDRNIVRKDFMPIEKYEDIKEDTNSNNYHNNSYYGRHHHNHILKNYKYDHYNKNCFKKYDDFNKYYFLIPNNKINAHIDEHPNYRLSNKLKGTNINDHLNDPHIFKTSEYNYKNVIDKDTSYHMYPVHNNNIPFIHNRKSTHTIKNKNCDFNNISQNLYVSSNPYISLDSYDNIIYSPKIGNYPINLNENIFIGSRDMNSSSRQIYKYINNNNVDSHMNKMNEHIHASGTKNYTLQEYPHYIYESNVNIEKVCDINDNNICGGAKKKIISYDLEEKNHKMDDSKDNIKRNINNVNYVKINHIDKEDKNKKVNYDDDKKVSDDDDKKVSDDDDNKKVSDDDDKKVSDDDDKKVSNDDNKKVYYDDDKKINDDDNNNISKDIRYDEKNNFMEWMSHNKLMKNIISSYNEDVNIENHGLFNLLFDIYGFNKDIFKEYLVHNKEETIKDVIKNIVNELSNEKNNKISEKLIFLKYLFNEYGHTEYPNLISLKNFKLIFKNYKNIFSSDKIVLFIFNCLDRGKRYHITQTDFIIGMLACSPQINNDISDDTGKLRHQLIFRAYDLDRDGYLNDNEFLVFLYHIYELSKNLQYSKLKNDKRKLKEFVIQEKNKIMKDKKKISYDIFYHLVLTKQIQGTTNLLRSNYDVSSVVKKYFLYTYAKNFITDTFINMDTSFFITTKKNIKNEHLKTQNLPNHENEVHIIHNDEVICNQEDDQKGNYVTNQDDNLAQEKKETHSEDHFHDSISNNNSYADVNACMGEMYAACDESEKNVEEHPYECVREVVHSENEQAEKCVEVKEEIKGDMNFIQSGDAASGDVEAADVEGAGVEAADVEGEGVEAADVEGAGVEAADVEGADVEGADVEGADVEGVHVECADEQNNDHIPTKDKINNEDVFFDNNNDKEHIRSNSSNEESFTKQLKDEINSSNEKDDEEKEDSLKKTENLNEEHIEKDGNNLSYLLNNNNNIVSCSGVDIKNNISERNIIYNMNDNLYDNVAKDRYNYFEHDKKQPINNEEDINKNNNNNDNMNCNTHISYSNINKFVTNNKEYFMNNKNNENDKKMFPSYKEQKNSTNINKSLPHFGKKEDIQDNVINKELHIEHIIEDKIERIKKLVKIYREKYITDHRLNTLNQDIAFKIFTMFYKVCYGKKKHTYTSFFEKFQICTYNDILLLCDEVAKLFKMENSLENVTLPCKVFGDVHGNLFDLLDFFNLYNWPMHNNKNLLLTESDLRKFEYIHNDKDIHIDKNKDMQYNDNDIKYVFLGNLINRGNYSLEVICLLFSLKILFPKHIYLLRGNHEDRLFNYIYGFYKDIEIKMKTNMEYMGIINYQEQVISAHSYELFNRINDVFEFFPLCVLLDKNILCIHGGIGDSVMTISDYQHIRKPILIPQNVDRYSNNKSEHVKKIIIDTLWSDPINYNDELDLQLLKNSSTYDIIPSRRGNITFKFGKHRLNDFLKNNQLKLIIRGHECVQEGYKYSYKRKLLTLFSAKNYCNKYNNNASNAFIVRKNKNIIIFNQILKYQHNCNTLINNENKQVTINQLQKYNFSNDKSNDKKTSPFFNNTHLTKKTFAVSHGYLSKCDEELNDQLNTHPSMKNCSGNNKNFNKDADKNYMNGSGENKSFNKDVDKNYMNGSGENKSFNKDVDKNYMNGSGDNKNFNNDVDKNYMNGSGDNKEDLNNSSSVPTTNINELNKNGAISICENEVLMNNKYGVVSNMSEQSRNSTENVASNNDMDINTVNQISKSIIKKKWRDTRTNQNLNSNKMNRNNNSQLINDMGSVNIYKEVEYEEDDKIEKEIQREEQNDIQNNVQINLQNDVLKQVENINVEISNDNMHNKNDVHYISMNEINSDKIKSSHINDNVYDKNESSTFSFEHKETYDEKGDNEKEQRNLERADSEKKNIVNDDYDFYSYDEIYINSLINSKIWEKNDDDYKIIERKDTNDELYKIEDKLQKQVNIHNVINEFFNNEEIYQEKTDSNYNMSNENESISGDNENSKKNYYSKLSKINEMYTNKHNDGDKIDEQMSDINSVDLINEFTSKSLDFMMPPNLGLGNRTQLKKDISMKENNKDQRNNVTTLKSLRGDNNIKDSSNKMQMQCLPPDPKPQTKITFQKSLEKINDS
UniProt Q8ILA2: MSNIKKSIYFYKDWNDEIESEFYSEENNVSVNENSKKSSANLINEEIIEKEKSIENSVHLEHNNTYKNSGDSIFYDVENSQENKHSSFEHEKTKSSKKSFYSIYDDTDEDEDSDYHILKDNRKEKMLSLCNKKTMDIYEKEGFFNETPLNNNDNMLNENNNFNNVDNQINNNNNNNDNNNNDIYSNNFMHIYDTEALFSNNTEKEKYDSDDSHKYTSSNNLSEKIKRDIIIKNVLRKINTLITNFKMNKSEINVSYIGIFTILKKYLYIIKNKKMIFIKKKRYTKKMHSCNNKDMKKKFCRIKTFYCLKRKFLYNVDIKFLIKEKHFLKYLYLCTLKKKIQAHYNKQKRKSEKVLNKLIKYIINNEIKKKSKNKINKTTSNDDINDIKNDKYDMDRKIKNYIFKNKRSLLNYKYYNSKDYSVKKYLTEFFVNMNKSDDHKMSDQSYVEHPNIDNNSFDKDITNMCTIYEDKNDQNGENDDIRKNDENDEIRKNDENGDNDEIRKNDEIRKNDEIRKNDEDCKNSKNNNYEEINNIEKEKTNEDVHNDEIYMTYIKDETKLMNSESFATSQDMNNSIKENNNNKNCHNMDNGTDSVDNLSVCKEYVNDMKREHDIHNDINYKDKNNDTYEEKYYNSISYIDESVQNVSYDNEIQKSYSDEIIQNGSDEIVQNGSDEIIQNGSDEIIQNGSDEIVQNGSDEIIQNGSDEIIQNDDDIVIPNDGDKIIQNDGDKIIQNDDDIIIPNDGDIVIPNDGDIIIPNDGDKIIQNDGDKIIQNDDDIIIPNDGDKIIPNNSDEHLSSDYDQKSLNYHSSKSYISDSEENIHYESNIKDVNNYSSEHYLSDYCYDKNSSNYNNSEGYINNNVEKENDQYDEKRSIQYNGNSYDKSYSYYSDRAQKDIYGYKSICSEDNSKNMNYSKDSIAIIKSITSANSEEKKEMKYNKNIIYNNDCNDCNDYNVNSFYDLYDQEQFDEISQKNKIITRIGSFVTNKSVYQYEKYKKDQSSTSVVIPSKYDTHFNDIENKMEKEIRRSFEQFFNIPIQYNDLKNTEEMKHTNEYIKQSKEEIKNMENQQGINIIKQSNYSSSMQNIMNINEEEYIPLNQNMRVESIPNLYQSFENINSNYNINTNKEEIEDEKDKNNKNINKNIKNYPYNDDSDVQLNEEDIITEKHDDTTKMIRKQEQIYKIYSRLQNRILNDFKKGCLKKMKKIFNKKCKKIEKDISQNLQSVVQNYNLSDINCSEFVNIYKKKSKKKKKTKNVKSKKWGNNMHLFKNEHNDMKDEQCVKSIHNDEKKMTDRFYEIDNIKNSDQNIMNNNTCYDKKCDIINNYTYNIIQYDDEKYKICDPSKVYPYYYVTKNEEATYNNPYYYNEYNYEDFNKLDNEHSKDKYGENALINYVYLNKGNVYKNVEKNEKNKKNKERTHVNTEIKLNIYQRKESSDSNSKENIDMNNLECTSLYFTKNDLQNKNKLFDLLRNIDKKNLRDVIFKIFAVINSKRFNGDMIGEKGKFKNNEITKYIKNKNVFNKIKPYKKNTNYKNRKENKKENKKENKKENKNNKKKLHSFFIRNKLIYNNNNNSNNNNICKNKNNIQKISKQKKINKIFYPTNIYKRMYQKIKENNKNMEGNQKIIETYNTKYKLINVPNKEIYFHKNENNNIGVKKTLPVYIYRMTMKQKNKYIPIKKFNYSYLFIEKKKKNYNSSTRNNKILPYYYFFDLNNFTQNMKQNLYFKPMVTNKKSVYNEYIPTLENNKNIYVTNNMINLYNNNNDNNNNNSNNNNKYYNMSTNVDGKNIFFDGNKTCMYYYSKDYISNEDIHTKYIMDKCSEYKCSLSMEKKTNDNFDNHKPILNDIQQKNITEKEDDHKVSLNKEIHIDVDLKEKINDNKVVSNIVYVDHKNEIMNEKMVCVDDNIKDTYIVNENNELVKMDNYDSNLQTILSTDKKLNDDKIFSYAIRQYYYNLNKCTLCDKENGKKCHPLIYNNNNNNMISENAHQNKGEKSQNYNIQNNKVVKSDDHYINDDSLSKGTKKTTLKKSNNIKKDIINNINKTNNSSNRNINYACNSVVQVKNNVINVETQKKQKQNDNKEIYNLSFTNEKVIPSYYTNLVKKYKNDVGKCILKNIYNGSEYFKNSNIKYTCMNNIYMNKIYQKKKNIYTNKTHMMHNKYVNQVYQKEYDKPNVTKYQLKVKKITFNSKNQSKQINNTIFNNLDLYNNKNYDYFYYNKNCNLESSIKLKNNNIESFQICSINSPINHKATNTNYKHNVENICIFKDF

B1: PfBTP1 (protein, UniProt C6KSW1 1-650)
chain: MKNTNKNNNIQSDTLSVNINNSNDFNKVLHEIKKKETQNDKRNNSSKRNVKPQIKTKKDNDTRNVTKEYEKNNIKNVRSLSNNKNNTTYLKKQNIEDDEDEKNIKFYDTPIFPYITSLILDYENDNKKPEPVSNVIESKEQIKRYNSHNKIERKNTIYDIYEKTLKKLSIQEENVVEKNEEHLYNSKSLEHKKSTTSEGSKIKSSVINTNISNNSFDESSSNDISVIQQKNHETKKDTKKPKQYHINDDTLRNDSNNSNYDHNNTCESINSSNEYNNNYKNKVHIYENQKEKGENEKETQNMKQQQYNNNVIKTNEKNHKVTNAFDDYYIDEEHFRQRSITIMQDKKKKKKNDRSYSLDSKSIISDELKEKNNEKEDLKKKEIKNNEEKLNTNKNESNQNSSHENIYYQKKTSQNENINHSLNDQTYKIKKKKSYDKQYTQKLYTRSDITTTDSDSSINEKLNISYEIFKSKNENKMFSIDQEKKNKDSLLKVVNSKNILNIRKILRIMRELYIGFIGLQLIYFITYILFGNNNVYLIQIISMSCTLFSLLDANYHGYLLNGFIDICIAIFLNIAILQNISGFKTLQSNDVLKNITISNIVLLYFFSAFSFLNSYFIYKLHSLEKKSINYVIRNIESKTEKNIKKSVSTK
B2: PF3D7_1351700 (PfIMC1f) (protein, UniProt A0A5K1K988 1-1318)
chain: MLKNTTKCDNIIKREQNRVLLQKKLSKDSVTSTKFCDSSEEREGSSNTSSNVSFKILEESNITKNLNEDKSYSFECDKEETLRKDYKKLNKKNSNKINKSNSLNQTNEEIIRDKTSVQNKKIHHEVLEEQEKDNSIKLNKNKVGIYFDNTTNSINNNIQKDNSDTLGTESYSTHKSNLNEVLNVSGDNSKHLLAPISSNDIIKKEDSNIYYNLNENSTYYYPNNNSKNYINKFLNNYNTPNVVDSFSYCGTNFHSGNISTSYNDRYLNGYSNNYMINNSINSSINSSINNSINSSINNSINNSIDNSINNSINNSISHFNTSYPNSNNNNNNNNNNLNYSMSNNFNSYPNNILNYNLNNQFINAYPINNLNYNSTSHFNMYPNKNMLINDTLNNTNSYINNMKYSGNNIMSEQNNILNETEFIGSYHNSSAPIISNQENNISNLGNTSAYVNDNTTYGNISGRNMYSGVINYENITDDNKMIKSDNNVVPTINTFYSSKNIGESTNGNVVVRKNYVDNTYDNNSNEEHSIENKEIYKSKSVSVSENETIKNDNVSVSVSEKVSSHTDYSRAKHSSHVVDKRIVHEGFDTIKIPKYREVEIVEKIVEVPVVHKVNKYVNKYEIKEVEKVVKKHINKYVETKIEVPELHYQDKIVEVPELQEVIKIIEKPEIKERIIYKNKIETKIIPKYIEVPVVKIVNRYEEYDDVGEVVKAVPVKKIVEIPNEIIKKVKVPVKKIIERPNYVPVIKYRDIPIEKIRYVPKIETVELVKKIPKIIDVPVPVKVPKIKVIDKPFYVNKYVDKPVVIPVSKTIKPVYKYEGKKIIEIPIHKPYLVTHDTVVNKNVENNMNSGRYSVYAKRLDLNSFDPIKRNELFNLVNKDNINFQRSMSVDDFVNNNSYVDGKEKYTDKLNENSVFNNYNGIGNKDNLDNMNKIKFTQSLNNNNNMSTTKHSNMEVSSQGYGYINDGKENMYNNYNNMNNLNIKGSEDASFHTKKSIFDNLNNDNINNINNNNNINKNYEENRKSSYGTSIHNTPNILPNRHNSMYPSNGNHMGEFISLKSFQNKKYSNSTIVDSEKAMNYTYGNFLSPTGVYNNGLYMENKDKNNMVYENNKKDMNTINYNNNNNNNNNNNIYYSANNKSPNNIHKLNMSNSMMKTNTFGNYPNIYRNSYMENKPEDMYLNRYTTKSNIINNNNNNNNNNNNSNNSNNSNYFYNGRNSSINNAFAYKQYYDSNKNGNNQHRLSHPSNMVHNINNSRTRSPSTCSADGISAYVVEYVGDENIMYNNGNTPFSSNGLLNNLGKTMEGSNYSFNGVPVNQK
B3: PfMORN1 (protein, UniProt Q8IJ93 1-364)
chain: MTEVTHCYNGNIKDGLFHGFGILIYSQHEKYEGDFVYGKREGRGKFTYADGATYEGEWVDDKIHGKGIANFVSGNIYEGEWENGKINGFGMLCYNNGDKYEGEWLDGKMHGRGTYTYEDGDVYIGEWKNDKRHGKGCVKYKGNENKIAETYEGDWVDGKMQGRGTYFFADGGIYEGDWVDGKMEGKGVYKYLNGNKYEGEWINDMKNGYGTLAYVNGELYEGYWKNDKVHGKGTLTYSKGDKYIGEWKYAKKCGEGELIYASGDKFKGQWKNDKANGYGILLYNNGNKYEGEWLDDHRHGMGTFTCKEDGTIYSGHFQFNRKHGKGTLTFVNGHILQGIWNSGLLEKVINYELTPSSPWNDPDL

molecular target: P. falciparum coordinator of nascent cell detachment (PfCINCH), PF3D7_0407800, with the spaghetti monster V5 tag at its carboxy terminus (Plasmodium falciparum (3D7)) (UniProt Q9U0K8); experiment: affinity purification with mass spectrometry; RIPA lysate of ~48 hpi PfCINCH^smV5-Tet schizonts on magnetic anti-V5 beads, 3 h at 4 °C, three RIPA washes, on-bead digestion; two biological replicates; control line PF3D7_1419700^smV5

binding | Molecule
binds | Pf3D7_1229800/PfMyoJ (from UniProt A0A144A488 1-2274)
binds | P. falciparum basal complex transmembrane protein 2 (PfBTP2), PF3D7_0704100 (from UniProt C0H4K4 1-3559)
binds | PF3D7_1018200 (PfPPP8) (from UniProt C6S3C9 1-2166) (enzyme)
binds | P. falciparum basal complex protein 1 (PfBCP1), PF3D7_1436200 (from UniProt Q8ILA2 1-2269)
binds | B1
binds | B2
binds | B3
